Record: PubChem BioAssay AID1259308 (NCATS, 2017)

Aim: 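Candidate targets for better recombinant protein yield in mammalian cells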 (primary screen)
Cells: human HEK293 embryonic kidney cells stably expressing firefly luciferase (HEK-CMV-Luc2-Hygro)
Knock-down reagent: single siRNA against human genes, 0.8 pmol siRNA per well
Timing: 72 h
Detection: 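Reporter luminescence and viable-cell signal on separate replicate plates, given as percent of non-targeting control and median/MAD z-scores, plus per-cell luciferase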
Scale: total luciferase, z-score: higher = more reporter protein produced
Rule for the call: 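Active when the median/MAD z-score for overall luciferase is greater than 3; a gene was taken forward for validation with new siRNAs if at least two of its three siRNAs passed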
Calls: active = raised luciferase; inactive = no rise
The whole screen tested about 59,000 reagents; below is a part drawn at random. Over the whole deposit, about 1,510 (2.6%) were called active. 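Calls use total luciferase alone and ignore viability, so some active siRNAs may act by altering cell number.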 The numbers tell different reagents against one gene apart. Not all columns of the deposit are shown.

RYR2 (GeneID 6262) #1 → total luciferase, z-score: -1.13; activity call: inactive
RYR2 (GeneID 6262) #2 → total luciferase, z-score: 0.253; activity call: inactive
RYR2 (GeneID 6262) #3 → total luciferase, z-score: 0.477; activity call: inactive
GLI2 (GeneID 2736) #1 → total luciferase, z-score: 1.96; activity call: inactive
GLI2 (GeneID 2736) #2 → total luciferase, z-score: -1.37; activity call: inactive
GLI2 (GeneID 2736) #3 → total luciferase, z-score: -0.46; activity call: inactive
DNAL4 (GeneID 10126) #1 → total luciferase, z-score: -0.288; activity call: inactive
DNAL4 (GeneID 10126) #2 → total luciferase, z-score: 0.941; activity call: inactive
DNAL4 (GeneID 10126) #3 → total luciferase, z-score: -1.5; activity call: inactive
HNF4A (GeneID 3172) #1 → total luciferase, z-score: 0.282; activity call: inactive
HNF4A (GeneID 3172) #2 → total luciferase, z-score: -1.5; activity call: inactive
HNF4A (GeneID 3172) #3 → total luciferase, z-score: 0.0198; activity call: inactive

Already shown: entries from further up.
DNAL4 (GeneID 10126) #2 → total luciferase, z-score: 0.941; activity call: inactive
DNAL4 (GeneID 10126) #3 → total luciferase, z-score: -1.5; activity call: inactive
HNF4A (GeneID 3172) #1 → total luciferase, z-score: 0.282; activity call: inactive

Continued.
CXCL6 (GeneID 6372) #1 → total luciferase, z-score: 1.25; activity call: inactive
CXCL6 (GeneID 6372) #2 → total luciferase, z-score: 0.643; activity call: inactive
CXCL6 (GeneID 6372) #3 → total luciferase, z-score: 0.623; activity call: inactive
MYL12BP3 (GeneID 442204) #1 → total luciferase, z-score: 4.23; activity call: active
MYL12BP3 (GeneID 442204) #2 → total luciferase, z-score: 2.47; activity call: inactive
MYL12BP3 (GeneID 442204) #3 → total luciferase, z-score: -0.109; activity call: inactive
HMGXB4 (GeneID 10042) #1 → total luciferase, z-score: -1.61; activity call: inactive
HMGXB4 (GeneID 10042) #2 → total luciferase, z-score: -1.21; activity call: inactive
HMGXB4 (GeneID 10042) #3 → total luciferase, z-score: 1.61; activity call: inactive
